Data from PMC11102862.
These are yes or no findings as the source states them, for the method shown. Binding seen in cells or lysates may run through a third protein. These calls come from enrichment with a bait or labelling near it, and not all partners need be listed. Sequences can lack the tags named with a protein.

Sequences of proteins named here, by UniProt entry; tags and fusion partners are left off.
UniProt O75643: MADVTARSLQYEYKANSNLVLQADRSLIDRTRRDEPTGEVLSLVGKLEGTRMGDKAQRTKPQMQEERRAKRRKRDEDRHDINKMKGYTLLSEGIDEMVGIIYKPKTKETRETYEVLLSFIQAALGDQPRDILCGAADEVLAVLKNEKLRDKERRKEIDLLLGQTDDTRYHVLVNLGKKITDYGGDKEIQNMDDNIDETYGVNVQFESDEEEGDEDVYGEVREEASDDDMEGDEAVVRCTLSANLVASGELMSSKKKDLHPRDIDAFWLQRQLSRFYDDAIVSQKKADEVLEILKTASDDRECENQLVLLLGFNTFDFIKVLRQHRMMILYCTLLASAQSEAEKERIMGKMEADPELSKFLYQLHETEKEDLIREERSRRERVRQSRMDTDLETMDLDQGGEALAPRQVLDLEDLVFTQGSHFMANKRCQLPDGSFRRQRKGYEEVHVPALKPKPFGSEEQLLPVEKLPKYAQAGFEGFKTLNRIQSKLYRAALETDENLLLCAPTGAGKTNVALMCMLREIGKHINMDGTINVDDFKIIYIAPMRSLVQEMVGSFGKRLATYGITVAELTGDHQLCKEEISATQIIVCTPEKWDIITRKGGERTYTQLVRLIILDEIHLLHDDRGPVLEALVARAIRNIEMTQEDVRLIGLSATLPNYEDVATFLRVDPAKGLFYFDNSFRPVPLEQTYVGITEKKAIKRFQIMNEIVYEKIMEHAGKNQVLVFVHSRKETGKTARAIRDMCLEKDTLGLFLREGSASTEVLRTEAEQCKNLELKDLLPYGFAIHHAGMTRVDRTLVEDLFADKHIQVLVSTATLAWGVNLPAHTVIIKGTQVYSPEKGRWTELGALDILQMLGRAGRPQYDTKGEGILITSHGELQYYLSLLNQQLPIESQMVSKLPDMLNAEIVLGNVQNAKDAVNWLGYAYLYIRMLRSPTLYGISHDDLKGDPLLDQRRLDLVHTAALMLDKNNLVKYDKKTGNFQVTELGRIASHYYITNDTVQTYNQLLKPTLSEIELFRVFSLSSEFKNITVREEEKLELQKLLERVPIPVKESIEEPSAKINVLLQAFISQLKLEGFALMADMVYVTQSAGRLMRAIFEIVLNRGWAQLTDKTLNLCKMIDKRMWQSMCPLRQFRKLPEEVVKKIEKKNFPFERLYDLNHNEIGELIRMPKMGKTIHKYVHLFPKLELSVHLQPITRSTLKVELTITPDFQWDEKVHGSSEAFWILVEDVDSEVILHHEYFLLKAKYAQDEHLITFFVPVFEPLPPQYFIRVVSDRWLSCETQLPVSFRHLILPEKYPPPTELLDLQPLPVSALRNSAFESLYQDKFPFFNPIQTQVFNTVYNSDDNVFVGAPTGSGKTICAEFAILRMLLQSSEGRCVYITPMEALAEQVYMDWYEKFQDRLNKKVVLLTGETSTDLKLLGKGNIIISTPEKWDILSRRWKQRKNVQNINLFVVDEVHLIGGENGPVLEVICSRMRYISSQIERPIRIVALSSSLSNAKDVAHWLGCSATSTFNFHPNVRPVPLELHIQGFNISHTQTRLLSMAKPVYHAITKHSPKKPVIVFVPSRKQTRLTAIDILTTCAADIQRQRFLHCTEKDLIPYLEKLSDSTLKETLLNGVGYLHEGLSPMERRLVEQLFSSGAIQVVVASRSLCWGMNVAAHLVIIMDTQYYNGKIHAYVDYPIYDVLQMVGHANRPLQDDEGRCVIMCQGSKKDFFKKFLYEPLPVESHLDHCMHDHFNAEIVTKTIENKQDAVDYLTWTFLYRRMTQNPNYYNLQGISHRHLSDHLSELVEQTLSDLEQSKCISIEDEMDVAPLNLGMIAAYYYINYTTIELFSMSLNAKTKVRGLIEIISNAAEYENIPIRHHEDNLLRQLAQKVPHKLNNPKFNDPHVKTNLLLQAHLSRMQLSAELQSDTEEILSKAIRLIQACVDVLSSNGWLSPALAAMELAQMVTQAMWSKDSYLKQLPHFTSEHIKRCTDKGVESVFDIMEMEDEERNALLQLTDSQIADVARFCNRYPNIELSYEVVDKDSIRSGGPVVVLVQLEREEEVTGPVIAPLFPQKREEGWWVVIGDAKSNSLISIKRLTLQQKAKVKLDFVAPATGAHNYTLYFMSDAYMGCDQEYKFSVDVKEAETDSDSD
UniProt Q9Y5U2: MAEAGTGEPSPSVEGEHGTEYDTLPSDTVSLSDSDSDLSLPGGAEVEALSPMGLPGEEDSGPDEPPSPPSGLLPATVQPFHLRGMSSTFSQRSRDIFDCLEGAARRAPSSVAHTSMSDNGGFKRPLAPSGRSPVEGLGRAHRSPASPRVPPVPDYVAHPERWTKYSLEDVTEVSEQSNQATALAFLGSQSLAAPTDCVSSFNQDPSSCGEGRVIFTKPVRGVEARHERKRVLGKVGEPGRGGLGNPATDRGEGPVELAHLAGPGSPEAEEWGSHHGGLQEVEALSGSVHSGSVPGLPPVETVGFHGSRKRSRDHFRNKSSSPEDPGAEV

Target: T1, 3xFLAG_TEV_SBP-tagged CD2BP2 (human) (UniProt O95400)
T1 sequence: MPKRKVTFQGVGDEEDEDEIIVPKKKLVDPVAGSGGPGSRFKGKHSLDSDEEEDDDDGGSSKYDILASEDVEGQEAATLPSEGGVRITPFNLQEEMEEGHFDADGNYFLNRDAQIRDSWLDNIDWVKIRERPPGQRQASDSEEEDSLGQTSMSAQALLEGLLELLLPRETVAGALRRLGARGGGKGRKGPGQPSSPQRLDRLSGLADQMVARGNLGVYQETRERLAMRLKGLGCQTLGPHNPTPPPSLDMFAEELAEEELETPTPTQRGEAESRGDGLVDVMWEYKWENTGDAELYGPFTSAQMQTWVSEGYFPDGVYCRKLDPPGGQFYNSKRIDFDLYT
Test: affinity purification with mass spectrometry; 3xFLAG_TEV_SBP-CD2BP2 as bait from 293-F nuclear extract adjusted to 500 mM KCl; anti-FLAG M2 gel, TEV elution, streptavidin agarose, biotin elution; composition by solution mass spectrometry (Extended Data Table 1), members also seen in the cryo-EM map of the same preparation

| binding | Substance |
| --- | --- |
| binds | BRR2 (from UniProt O75643 1-2136) (enzyme) |
| binds | TSSC4 (from UniProt Q9Y5U2 1-329) |
